Data published in PubChem BioAssay AID2685 (National Center for Advancing Translational Sciences (NCATS), 2010).
Some of the results follow. The main result of the screen is listed elsewhere. These columns were measured beside it and carry no call. Most of these compounds were active or inconclusive in the main read-out, so they are no random draw. Potencies come from curve fits of mixed quality, noted in brackets.

Assay: qHTS Assay for Lipid Storage Modulators in Drosophila S3 Cells;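 as to cell number change: cells counted by Cell Tracker Red CMTPX staining in the red channel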
Details: BODIPY lipid droplet fluorescence, 18-24 h; for cell number change: measured here: cell count max response, cells fed with added oleic acid
Outline: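 Drosophila S3 cells got compounds at several concentrations plus oleic acid (400 uM solution). Laser-scanning cytometry with 488 nm excitation read lipid droplets at 500-530 nm and cells at 575-640 nm. Percent activity was relative to 20 uM Triacsin C.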

[1] = measured here: cell number channel AC50, cells fed with added oleic acid
[2] = measured here: lipid fluorescence (Fed channel) AC50, cells fed with added oleic acid

Row | SMILES | cell number change [%] | AC50 [1] | AC50 [2]
1 | Fc1ccc(CNC2CN3CCC2CC3)cc1 (stereo not drawn) | -8.55 | – | –
2 | CC1(C)NC(=O)N(c2ccc([N+](=O)[O-])c(C(F)(F)F)c2)C1=O | – | 8200 nM [rising, partial curve, poor fit] | –
3 | CC12CCCCC1=[N+]([O-])CN2O (stereo not drawn) | -2.54 | 6510 nM [falling, single point] | 5800 nM [falling, single point]
4 | OC1C2CN3CN(C2)CC1(c1ccccc1)C3 (stereo not drawn) | -29.9 | 5.8 nM [falling, full curve] | –
5 | CCCCCn1c(=O)c(C(=O)Nc2ccccc2Cl)c(O)c2ccccc21 | 17.2 | – | 5170 nM [rising, partial curve]
6 | COc1ccc(C(=O)C2(C)N(O)C(C)C(c3cccs3)=[N+]2[O-])cc1 (stereo not drawn) | -38.1 | 5.8 nM [falling, full curve, poor fit] | 5800 nM [falling, full curve]
7 | COc1ccc2c(c1)NP(=S)(Oc1ccccc1)N2 (stereo not drawn) | 9.95 | – | 2060 nM [rising, full curve, poor fit]
8 | CCOC(=O)C1(CCc2ccccc2)CCN(Cc2cccc3c2OCO3)CC1 | -53.8 | 29100 nM [falling, single point] | 29100 nM [falling, single point]
9 | COC(=O)C1=C(c2ccc(OC)c(OC)c2)C[C@@H]2CC[C@H]1N2C(=O)NCc1ccco1 | 15.7 | – | 1160 nM [rising, partial curve]
10 | O=C(CCCC1=NS(=O)(=O)c2ccccc2N1)N1CCC2(CC1)OCCO2 | -19.2 | 2590 nM [falling, single point] | –
11 | COC(=O)C1=C(c2ccc(-c3ccccc3)c(F)c2)C[C@@H]2CC[C@H]1N2C(=O)N1CCC(C)CC1 | -36.3 | 18400 nM [falling, single point] | 5.17 nM [rising, full curve, poor fit]
12 | O=C(C1CC(c2ccc(F)cc2)=NO1)N1CCC2(CC1)OCCO2 (stereo not drawn) | -22.1 | – | –
13 | CC(C)(C)c1nc(N2CCN(C(=O)c3ccco3)CC2)c2nnn(Cc3ccccc3Cl)c2n1 | -28.1 | – | 29100 nM [falling, single point]
14 | O=C1NC(=S)N(c2ccccc2F)C(=O)/C1=C\c1cccs1 | -30 | 4610 nM [falling, full curve, poor fit] | 32600 nM [falling, single point]
15 | CCOP(=O)(Cc1cc(C(=O)CC)c(C)o1)OCC | 9.82 | 920 nM [falling, full curve, poor fit] | 1640 nM [falling, partial curve]
16 | COCCNC(=O)c1c(NC(=O)c2ccc(Br)o2)n(Cc2ccccc2)c2nc3ccccc3nc12 | 13.7 | 3660 nM [rising, partial curve] | 517 nM [rising, partial curve, poor fit]
17 | CC1=C2C(=O)C3C(CC=C4CC(OC5OC(O)C(O)C(O)C5CO)CCC43C)C2CCC12OC1CC(C)CNC1C2C (stereo not drawn) | -36.2 | 2910 nM [falling, full curve] | 13000 nM [falling, partial curve]
18 | Clc1ccc(CN2CCNCC2)cc1 | 51 | 32600 nM [rising, single point] | –
19 | N[C@@H](Cc1c[nH]c2ccccc12)c1nnc(SCc2ccc(Cl)cc2)o1 | -20.2 | – | 461 nM [rising, single point]
20 | Cn1c(=O)oc2cc(S(=O)(=O)NCCC(=O)NCCc3ccccc3)ccc21 | – | 13000 nM [falling, partial curve] | –
21 | COc1ccc(Cl)cc1C(=O)C1CCCN(CCO)C1 (stereo not drawn) | 3.24 | – | 231 nM [rising, full curve, poor fit]
22 | COC(=O)C1=C(c2ccc(F)cc2OCc2ccccc2)C[C@@H]2CC[C@H]1N2C(=O)NC1CCCCC1 | -14 | – | 29100 nM [falling, partial curve, poor fit]
23 | Cn1c(=O)oc2cc(S(=O)(=O)NCCC(=O)NCc3ccccc3Cl)ccc21 | – | 2590 nM [rising, single point] | –
24 | COc1ccc(CNCCc2ccc(Cl)cc2)c(OC)c1OC | 11.8 | – | –
25 | COC(=O)C1=C(c2cccc(OCc3ccccc3)c2)C[C@@H]2CC[C@H]1N2C(=O)NCCOc1ccccc1Cl | 5.46 | – | 326 nM [rising, full curve, poor fit]
26 | O=C(NC1CN2CCC1CC2)c1ccc(-c2ccc([N+](=O)[O-])cc2)o1 (stereo not drawn) | -12.7 | – | –
27 | C=CCn1c(O)c(C(C)=NCCN2CCCCC2)c(=O)[nH]c1=O | 8.52 | – | 2310 nM [rising, single point]
28 | COC(=O)C1CN(C#N)N(c2ccc(Cl)cc2)C12c1ccccc1-c1ccccc12 (stereo not drawn) | -47.4 | 920 nM [falling, full curve] | 2060 nM [falling, partial curve]

An excerpt from above, reduced to AC50 [1].
Row | SMILES | AC50 [1]
10 | O=C(CCCC1=NS(=O)(=O)c2ccccc2N1)N1CCC2(CC1)OCCO2 | 2590 nM [falling, single point]
17 | CC1=C2C(=O)C3C(CC=C4CC(OC5OC(O)C(O)C(O)C5CO)CCC43C)C2CCC12OC1CC(C)CNC1C2C (stereo not drawn) | 2910 nM [falling, full curve]
